# Assay results taken from patent publication US9416151B2, “Use of glycyrrhetinic acid, glycyrrhizic acid and related compounds for prevention and/or treatment of pulmonary fibrosis” (priority 2010, dated 2016).
# At least one structure is not confirmed: it was looked up by name or label, or the drawing left a doubt.
# Legend:
# [1] = test system: inflammatory mediators (IMs), including IL1a, TNFa, PF4 and VCAM-1; assay: Inflammatory mediators in lung homogenates by ELISA, acute phase of IR-induced pneumonitis; type: in vivo, C57BL/6 fibrosis-prone mice; details: 2.5 days after thoracic IR 15 Gy; treatment from 6 h after IR; vs vehicle, p<0.05
# Method: (§1) Briefly, C57BL/6 fibrosis-prone mice received a single-dose of thoracic IR at 15 Gy with a dose rate of 1.9 Gy/min. Six hours after IR exposure, the mice were divided into the following treatment groups: 1) normal (received 0 Gy; no treatment); 2) vehicle-treated; 3) GA-treated (30-40 mg/kg/q.o.d) (i.e. every other day) (the GA dosage used herein was derived from the effective dosage for humans (3-4 mg/kg), which is typically 6-10 times lower than that of mice); 4) dexamethasone-treated (Positive Control 1) (Dex, 3 mg/kg, i.m. or p.o. qod); 5) amifostine-treated (Positive Control 2) (Ami, 200 mg/kg/ i.v, 0.5 hr prior to irradiation); and 6) celebrex-treated (Positive Control 3) (30 mg/kg, po, qod).
# The mice were sacrificed 2.5 days after IR exposure, and fresh lung tissue homogenates were prepared using lysis buffer mixed with protenase inhibitor cocktails. After protein concentration was adjusted to 1 mg/ml, the fresh lung homogenates were added to ELISA plates at a concentration of 100 μl/well. The levels of inflammatory mediators were measured by ELISA.
# [2] = test system: mice with IR-induced pneumonitis; assay: Lung morphology, plasma exudation and inflammatory cell infiltration, acute phase of IR-induced pneumonitis; type: in vivo, C57BL/6 fibrosis-prone mice; details: 2.5 days after thoracic IR 15 Gy
# Method: as §1
# Briefly, C57BL/6 fibrosis-prone mice received a single-dose of thoracic IR at 15 Gy with a dose rate of 1.9 Gy/min and were treated as described in Example 2. The mice were sacrificed 2.5 days after IR exposure, and lung tissues were harvested and analyzed for morphological changes.
smiles,measurement,setting,value
C[C@@H]1C[C@H]2[C@@H]3CCC4=CC(=O)C=C[C@]4(C)[C@@]3(F)[C@@H](O)C[C@]2(C)[C@@]1(O)C(=O)CO [dexamethasone],"levels of inflammatory mediators (IL1a, TNFa, PF4, VCAM-1) in lung homogenates",[1],extent of inhibition by GA was comparable
same,plasma exudation and inflammatory cell infiltration into the interstitial space,[2],produced similar treatment effects
